PubChem BioAssay AID1259405, NCATS | 2018
The deposit covers about 50,000 reagents; this is a part drawn at random. About 4,000 of them (8%) were called active. 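Mouse siRNA library applied to hamster cells; one well for each siRNA.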 A number with no mark means an inactive call. The numbers tell different reagents against one gene apart.

Screen: 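Mouse-designed siRNAs used to find CHO productivity engineering targets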 (primary screen)
System: Chinese hamster CHO-K1 ovary cells with stable secreted eGFP expression
Knock-down reagent: single siRNA against mouse genes, 0.8 pmol siRNA per well (2 µl of 400 nM stock)
Time to read-out: 3 days
Measured: 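Percent of the per-plate non-targeting control median for intracellular GFP per well by laser scanning cytometry and for cell viability by ATP luminescence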
Scale: GFP, % of control: higher = more GFP per well, higher productivity; viability (ATP), % of control: higher = more viable cells (more ATP)
Call rule: 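a knock-down is called active if GFP reaches 120% or more of non-targeting control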

Itsn1 #1 → GFP, % of control: 71.9; viability (ATP), % of control: 75.7
Itsn1 #2 → GFP, % of control: 85.3; viability (ATP), % of control: 92.6
Itsn1 #3 → GFP, % of control: 29.8; viability (ATP), % of control: 32.4
Grin3b #1 → GFP, % of control: 78.3; viability (ATP), % of control: 83.9
Grin3b #2 → GFP, % of control: 53.9; viability (ATP), % of control: 63.1
Grin3b #3 → GFP, % of control: 124 (active); viability (ATP), % of control: 87.7
Or2a12 #1 → GFP, % of control: 91.6; viability (ATP), % of control: 85.6
Or2a12 #2 → GFP, % of control: 90.5; viability (ATP), % of control: 77.9
Or2a12 #3 → GFP, % of control: 80.8; viability (ATP), % of control: 36.3
Slc2a9 #1 → GFP, % of control: 101; viability (ATP), % of control: 65.4
Slc2a9 #2 → GFP, % of control: 99.9; viability (ATP), % of control: 90.9
Slc2a9 #3 → GFP, % of control: 59.3; viability (ATP), % of control: 84.8
Fes → GFP, % of control: 75.6; viability (ATP), % of control: 75.5
Nos1 #1 → GFP, % of control: 77.4; viability (ATP), % of control: 77.3
Nos1 #2 → GFP, % of control: 85.1; viability (ATP), % of control: 61.9
Csmd1 #1 → GFP, % of control: 121 (active); viability (ATP), % of control: 67.6
Csmd1 #2 → GFP, % of control: 91.4; viability (ATP), % of control: 30
Csmd1 #3 → GFP, % of control: 104; viability (ATP), % of control: 93
Sgsm2 #1 → GFP, % of control: 78.2; viability (ATP), % of control: 24
Sgsm2 #2 → GFP, % of control: 81; viability (ATP), % of control: 66.3
Sgsm2 #3 → GFP, % of control: 65.9; viability (ATP), % of control: 61.5

Ordered by “GFP, % of control” (highest first): 6 of the entries above
Slc2a9 #1 → GFP, % of control: 101; viability (ATP), % of control: 65.4
Slc2a9 #2 → GFP, % of control: 99.9; viability (ATP), % of control: 90.9
Or2a12 #3 → GFP, % of control: 80.8; viability (ATP), % of control: 36.3
Nos1 #1 → GFP, % of control: 77.4; viability (ATP), % of control: 77.3
Fes → GFP, % of control: 75.6; viability (ATP), % of control: 75.5
Slc2a9 #3 → GFP, % of control: 59.3; viability (ATP), % of control: 84.8

Continued.
Nat8l #1 → GFP, % of control: 131 (active); viability (ATP), % of control: 90.7
Nat8l #2 → GFP, % of control: 70.2; viability (ATP), % of control: 73.4
Nat8l #3 → GFP, % of control: 22.6; viability (ATP), % of control: 34.4
Magea2 #1 → GFP, % of control: 49.4; viability (ATP), % of control: 36
Magea2 #2 → GFP, % of control: 79.6; viability (ATP), % of control: 57.1
Magea2 #3 → GFP, % of control: 91; viability (ATP), % of control: 92.8
Camsap3 #1 → GFP, % of control: 115; viability (ATP), % of control: 90.5
Camsap3 #2 → GFP, % of control: 92.9; viability (ATP), % of control: 73.4
Camsap3 #3 → GFP, % of control: 108; viability (ATP), % of control: 74.3
Itga3 #1 → GFP, % of control: 85.2; viability (ATP), % of control: 62.7
Itga3 #2 → GFP, % of control: 93.2; viability (ATP), % of control: 69.6
Itga3 #3 → GFP, % of control: 98.4; viability (ATP), % of control: 94.8
9630041A04Rik #1 → GFP, % of control: 120 (active); viability (ATP), % of control: 69.4
9630041A04Rik #2 → GFP, % of control: 103; viability (ATP), % of control: 78
9630041A04Rik #3 → GFP, % of control: 94.6; viability (ATP), % of control: 82.7
Tectb #1 → GFP, % of control: 154 (active); viability (ATP), % of control: 70.5
Tectb #2 → GFP, % of control: 84.8; viability (ATP), % of control: 113
Tectb #3 → GFP, % of control: 70.9; viability (ATP), % of control: 91.3
Ube2c #1 → GFP, % of control: 14.7; viability (ATP), % of control: 35.4
Ube2c #2 → GFP, % of control: 83.9; viability (ATP), % of control: 74.7
Ube2c #3 → GFP, % of control: 84.4; viability (ATP), % of control: 132
Hnf4g #1 → GFP, % of control: 51.7; viability (ATP), % of control: 53.5
Hnf4g #2 → GFP, % of control: 59.7; viability (ATP), % of control: 46.7
Rab35 #1 → GFP, % of control: 122 (active); viability (ATP), % of control: 123
Rab35 #2 → GFP, % of control: 130 (active); viability (ATP), % of control: 95.9
Rab35 #3 → GFP, % of control: 75; viability (ATP), % of control: 81.4
Prdx4 #1 → GFP, % of control: 100; viability (ATP), % of control: 55
Prdx4 #2 → GFP, % of control: 64.5; viability (ATP), % of control: 38.4
Prdx4 #3 → GFP, % of control: 73.8; viability (ATP), % of control: 72
D630029K05Rik #1 → GFP, % of control: 59.1; viability (ATP), % of control: 85.3
D630029K05Rik #2 → GFP, % of control: 29.7; viability (ATP), % of control: 57.4
D630029K05Rik #3 → GFP, % of control: 102; viability (ATP), % of control: 96.9
